Data on two substances can be found in paper PMC12362812.

Assay [1] concerns the target β‐catenin, wild type, in ESCC cells (human) (UniProt P35222). Put plainly: co-IP; lysates of transfected ESCC cells, precleared with IgG and protein A/G Sepharose beads; primary antibody overnight at 4 °C, protein A/G Sepharose beads 4 h, washed with IP lysis buffer, Western blot; for β‐catenin and NUP93 with ectopic LIMK1 or CDK5 (wild type or kinase-dead).
Assay [2] concerns the target T1, LIMK1‐D460A, catalytically inactive mutant, overexpressed in ESCC cells (human) (UniProt P53667).
T1 sequence: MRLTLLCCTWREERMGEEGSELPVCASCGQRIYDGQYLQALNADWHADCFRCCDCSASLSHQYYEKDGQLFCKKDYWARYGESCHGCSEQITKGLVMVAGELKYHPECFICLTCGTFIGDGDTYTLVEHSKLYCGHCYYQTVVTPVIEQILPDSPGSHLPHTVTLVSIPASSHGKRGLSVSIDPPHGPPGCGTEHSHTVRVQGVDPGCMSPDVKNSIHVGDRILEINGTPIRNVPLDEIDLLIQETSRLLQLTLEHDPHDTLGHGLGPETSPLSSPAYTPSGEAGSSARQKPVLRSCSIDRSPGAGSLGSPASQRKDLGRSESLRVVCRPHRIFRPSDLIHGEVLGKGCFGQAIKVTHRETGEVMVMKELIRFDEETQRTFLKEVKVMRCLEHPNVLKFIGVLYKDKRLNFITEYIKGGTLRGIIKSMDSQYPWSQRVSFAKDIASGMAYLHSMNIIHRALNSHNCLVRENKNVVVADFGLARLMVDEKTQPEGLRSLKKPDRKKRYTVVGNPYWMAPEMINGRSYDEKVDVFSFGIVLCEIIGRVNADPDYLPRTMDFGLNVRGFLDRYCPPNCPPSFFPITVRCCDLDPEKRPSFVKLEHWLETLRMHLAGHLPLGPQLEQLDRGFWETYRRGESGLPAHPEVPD
Described as above.

No constants are given. Whether binding was seen depends on the method and setting. In cells and extracts the contact can be indirect. Some binding calls cover weakened binding; strength is not graded here.

Consider “Cyclin‐dependent kinase 5 (CDK5), wild type, overexpressed in ESCC cells (from UniProt Q00535 1-292) (enzyme)”, for which, in assay [1], the binding result was “binds”. Turning to “β‐catenin, wild type, in ESCC cells (from UniProt P35222 1-781)”, the binding entry in assay [2] is listed as “binds”.
